# PubChem BioAssay AID652243 – Drosophila RNAi Screening Center – 2013
# Aim: 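Fly regulators of androgen-dependent reporter output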 (primary screen)
# System: Drosophila S2R+ cells
# Reagents: long dsRNA against Drosophila genes
# Timing: 72 h (48 h, then 24 h hormone)
# Challenge: synthetic androgen R1881 at 10 nM for 24 h
# Read-out: 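Per-well raw luminescence of the androgen-driven firefly reporter and of the Renilla control, two replicates each, without normalisation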
# Direction: firefly reporter light: higher = more light from androgen-responsive reporter; Renilla control light: higher = more constitutive control signal (cell number, transfection)
# Rule for the call: 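Across duplicate plates, a knock-down whose log firefly/Renilla ratio shifted a set fold down or up from the GFP/LacZ control mean was a hit; the downward cut appears as both 1.5 and 3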
# Calls: active = hit: reporter lowered or raised; inactive = no hit
# In all, the deposit lists about 24,000 reagents; shown is a random part of those with a known target gene and a result. Of all reagents, 246 (1%) are marked active. 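Plates not normalised; calls are printed but the firefly/Renilla ratio behind them is not deposited; fold cut for lowering reported inconsistently.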 Raw values are not corrected between plates. The numbers tell different reagents against one gene apart. No sequences are given here. Not stated in the record: the amount of reagent.
gene,reagent no.,"firefly reporter light, replicate 1","firefly reporter light, replicate 2","Renilla control light, replicate 1","Renilla control light, replicate 2",call
Arv1,1,1.97e5,2.32e5,4.96e5,5.52e5,inactive
CG6972,1,2.31e5,3.24e5,1.56e6,2.17e6,inactive
CG6972,2,5.07e5,4.46e5,1.81e6,1.81e6,inactive
Cdc37,1,55573,57801,6.34e5,1.06e6,inactive
Cdc37,2,2.48e5,1.98e5,3.62e5,6.90e5,inactive
Zn72D,1,83330,54453,5.11e5,3.06e5,inactive
beat-IIIc,1,1.50e5,1.94e5,1.82e6,2.18e6,inactive
beat-IIIc,2,1.55e5,1.75e5,1.92e6,2.19e6,inactive
CG42326,1,3.64e5,4.21e5,2.73e6,2.48e6,inactive
CG42326,2,2.28e5,2.08e5,1.79e6,1.76e6,inactive
CG42326,3,7.73e5,8.51e5,7.84e5,7.07e5,inactive
GC1,1,3.74e5,3.67e5,2.86e6,2.73e6,inactive
GC1,2,6.74e5,6.25e5,6.44e5,7.06e5,inactive
CG34337,1,3.98e5,5.44e5,3.94e6,4.42e6,inactive

In a second layout: results already given
gene | reagent no. | firefly reporter light, replicate 1 | firefly reporter light, replicate 2 | Renilla control light, replicate 1 | Renilla control light, replicate 2 | call
Cdc37 | 2 | 2.48e5 | 1.98e5 | 3.62e5 | 6.90e5 | inactive
Zn72D | 1 | 83330 | 54453 | 5.11e5 | 3.06e5 | inactive
beat-IIIc | 1 | 1.50e5 | 1.94e5 | 1.82e6 | 2.18e6 | inactive
beat-IIIc | 2 | 1.55e5 | 1.75e5 | 1.92e6 | 2.19e6 | inactive
CG42326 | 1 | 3.64e5 | 4.21e5 | 2.73e6 | 2.48e6 | inactive
CG42326 | 2 | 2.28e5 | 2.08e5 | 1.79e6 | 1.76e6 | inactive
CG42326 | 3 | 7.73e5 | 8.51e5 | 7.84e5 | 7.07e5 | inactive

Additional results:
gene,reagent no.,"firefly reporter light, replicate 1","firefly reporter light, replicate 2","Renilla control light, replicate 1","Renilla control light, replicate 2",call
Spase22-23,1,2.51e5,2.02e5,2.42e6,2.45e6,inactive
CG2616,1,76033,87551,1.66e6,1.80e6,inactive
CG2616,2,7.34e5,8.25e5,7.85e5,7.37e5,inactive
SmydA-6,1,80448,87372,1.19e6,1.19e6,inactive
kraken,1,1.31e5,81663,8.71e5,7.14e5,inactive
kraken,2,3.62e5,4.87e5,1.51e6,1.28e6,inactive
Rbsn-5,1,9.58e5,1.14e6,2.19e6,2.26e6,inactive
Rbsn-5,2,3.05e5,1.83e5,4.28e5,4.67e5,inactive
dpr19,1,1.69e5,1.65e5,1.06e6,1.02e6,inactive
CG6839,1,39717,19372,3.93e5,1.89e5,inactive
CG10338,1,1.14e5,1.38e5,1.45e6,1.43e6,inactive
Act88F,1,75062,77460,1.14e6,1.44e6,inactive
Act88F,2,7.33e5,7.37e5,9.45e5,8.91e5,inactive
SH3PX1,1,1.41e5,1.17e5,1.77e6,1.51e6,inactive
CG1074,1,4.43e5,5.10e5,1.74e6,1.54e6,inactive
CG1074,2,6.50e5,5.54e5,1.72e6,1.42e6,inactive
Obp83g,1,52487,70810,1.31e6,1.21e6,inactive
Obp83g,2,3.04e5,6.12e5,6.74e5,1.84e6,inactive
CG13872,1,62665,1.04e5,1.08e6,1.04e6,inactive
CG13004,1,3.62e5,3.29e5,2.75e6,2.55e6,inactive
CG32982,1,2.30e5,2.70e5,1.72e6,1.74e6,inactive
CG32982,2,1.28e5,1.53e5,1.08e6,1.31e6,inactive
CG32982,3,1.01e6,6.08e5,1.59e6,1.52e6,inactive
mRpL24,1,6.44e5,8.59e5,1.33e6,1.80e6,inactive
Nf1,1,32232,84813,3.29e5,4.85e5,inactive
Nf1,2,8.21e5,8.88e5,1.08e6,1.38e6,inactive
